From publication PMC10190533, “Engineering Escherichia coli to Utilize Erythritol as Sole Carbon Source” (Advanced Science, 2022)
Tags and fusion partners may be left off the protein sequences shown.

Target: T1, EryD (Ochrobactrum spp. (isolated strain)) (UniProt A6X312)
T1 sequence (looked up, limits assumed): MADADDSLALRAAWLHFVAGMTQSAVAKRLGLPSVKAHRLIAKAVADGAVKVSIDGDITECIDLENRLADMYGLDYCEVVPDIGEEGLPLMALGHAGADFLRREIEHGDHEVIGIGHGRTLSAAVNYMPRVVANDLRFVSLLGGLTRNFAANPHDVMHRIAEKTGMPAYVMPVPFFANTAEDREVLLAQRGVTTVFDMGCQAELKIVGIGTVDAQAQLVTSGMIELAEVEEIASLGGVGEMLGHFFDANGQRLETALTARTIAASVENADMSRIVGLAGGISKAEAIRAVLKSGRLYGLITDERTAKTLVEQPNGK
Test: EMSA
Conditions: 200 nM DNA, EryD titration; 10 mM Tris-HCl pH 7.5, 1 mM EDTA, 100 mM NaCl, 0.1 mM DTT, 10 ug/mL BSA, 5% glycerol; 30 min, room temperature; 7.5% PAGE in 1x TAE; recombinant protein; label: 5' FAM

Sequence: TATCAAACGCCTTCAGCAATTCTGCCGTATTGTCGTTATGGAAACGGATGATGCGGCTGAATTAGACCGCCCGGAGATTACCCTCGACCATTGTCATCACGCTTACCGGATAGGCAAAAGCCTCCGCCAAAGCGGTGCAGGACGCGACAGACGAGATCATGATAGCCTCCACATGAATTCCAGGGCCCCGCTCCTCCGTGCATCCTGGAAACAGATGCGCCGCAATCAAAACCTATGATAGCGGCGTGTTATTAACTCCAATAATGATGTTATAAAGCTCGAAAGCTGTCAATCGGATGTTTTCGAAACACCGGTGAAATAGCACAATTTCGCGCCGAATCTCGATCACGATCTAGAGAAATCCACTACATAATTCGTTATCAATCGCACTATTCACAGCACCGTCTTTTCTCGCAAAGCCAGCCACAAAGATACTCACAAACTTCTATATTTTCTTTTATTTTCAATGAATTAAACATATTTAAAACCGAAGAAACATTAAGCTATTGATGGAAAACAGTGGGAAAACCGCACTCGAAGGCGCGGAGATTTCCCCTACATTCACTCTTTGGTGAAAAAAAATGCGCCATCTAGAAAATTTTACAGACAACGTGATAGCGTTATGTTATCTCCAGCATACGCCATCGCCCGATTTCATTATAAACAGGGCTGCGAGCGACGTATTTTCGGTCGCGGGAGGAATCCAAATGTCAATGAAAGCACATAGCCGCC (double strand) [pEryF-732 (eryE-eryA intergenic region)]
- binding result: binds
